Data as given in PubChem BioAssay AID1259317 (Drosophila RNAi Screening Center, 2017)
Purpose: 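Genes whose knockdown changes fly cell survival under toxic manganese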 (primary screen). Cells: Drosophila S2R+ cells. Reagents: long dsRNA against Drosophila genes. Duration: 5 days (4 days knockdown, then 1 day metal). Conditions: manganese chloride added to 15 mM final for 1 day. Measured: 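Cellular ATP measured by luciferase luminescence after 4 days knockdown then 1 day of 15 mM manganese chloride; z-score averaged over three plates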. Direction: mean z-score, 3 replicates: higher = more ATP, more surviving cells under manganese. Rule for the call: 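Active calls require an absolute mean z-score greater than 1.5, in either direction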. Calls: active = hit: z-score beyond ±1.5 (ATP up or down); inactive = not a hit.
Shown is a random part of 418 reagents. 34 of them (8.1%) were called active. 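Hits are two-sided: raised or lowered ATP both count; higher z-score means more ATP and more surviving cells.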 Reagent sequences are not shown. The record does not give: the amount of reagent.

| gene | DRSC id | mean z-score, 3 replicates | Call |
| --- | --- | --- | --- |
| Cln7 | DRSC11005 | 1.8 | active |
| Cln7 | DRSC40187 | -0.405 | inactive |
| Sgsh | DRSC14771 | -0.308 | inactive |
| Sod3 | DRSC07324 | 0.928 | inactive |
| Sod3 | DRSC26222 | 0.0959 | inactive |
| CG31928 | DRSC00293 | 0.416 | inactive |
| Acsf2 | DRSC02172 | -0.421 | inactive |
| Acsf2 | DRSC27832 | -0.0533 | inactive |
| CG17544 | DRSC02624 | -0.663 | inactive |
| CG17544 | DRSC25562 | 0.441 | inactive |
| CG3961 | DRSC10390 | 1.37 | inactive |
| CG3961 | DRSC10391 | -0.557 | inactive |
| CG3961 | DRSC35309 | 1.98 | active |
| JhI-21 | DRSC02161 | -0.244 | inactive |
| JhI-21 | DRSC29181 | 1.09 | inactive |
| Dci | DRSC08360 | 1.14 | inactive |
| Dci | DRSC28929 | -0.12 | inactive |
| Vha36-3 | DRSC18615 | 2.5 | active |
| Vha36-3 | DRSC28636 | 1.92 | active |
| Npc2f | DRSC15980 | 0.791 | inactive |
| Coprox | DRSC01996 | -0.635 | inactive |
| Coprox | DRSC28744 | 0.0529 | inactive |
| Acox57D-p | DRSC04560 | -1.13 | inactive |
| Acox57D-p | DRSC39339 | 0.0362 | inactive |
| Agps | DRSC05984 | -0.53 | inactive |
| Agps | DRSC26742 | 0.359 | inactive |
| Agps | DRSC41165 | -0.809 | inactive |
| VhaSFD | DRSC03471 | 2.23 | active |
| VhaSFD | DRSC32234 | -1.28 | inactive |
| VhaSFD | DRSC32235 | -1.12 | inactive |
| Vha36-1 | DRSC07098 | -0.813 | inactive |
| Vha36-1 | DRSC25624 | 1.49 | inactive |
| Pex5 | DRSC18552 | 0.955 | inactive |
| Pex5 | DRSC26136 | 0.317 | inactive |
| Pex5 | DRSC34058 | -0.472 | inactive |
| CG9886 | DRSC00732 | 0.35 | inactive |
| CG9886 | DRSC40409 | 0.0297 | inactive |
| CG9886 | DRSC41580 | 0.3 | inactive |
| rb | DRSC18826 | 0.0618 | inactive |
| rb | DRSC27940 | -0.699 | inactive |
| Bace | DRSC02197 | 0.548 | inactive |
| Bace | DRSC28723 | -0.482 | inactive |
| Bace | DRSC33860 | -0.892 | inactive |
| cm | DRSC41297 | 0.866 | inactive |
| AP-1gamma | DRSC18433 | 0.195 | inactive |
| AP-1gamma | DRSC36403 | -0.416 | inactive |
| Hel25E | DRSC28348 | -0.906 | inactive |
| Hel25E | DRSC30679 | 1.4 | inactive |
| Hel25E | DRSC30680 | -1.1 | inactive |
| CRAT | DRSC12523 | -0.675 | inactive |
| CRAT | DRSC29377 | 0.627 | inactive |
| Vha68-3 | DRSC02809 | -0.421 | inactive |
| Vha68-3 | DRSC25742 | 3.33 | active |
| Npc2g | DRSC14296 | -1.93 | active |
| Wdr24 | DRSC14151 | -1.46 | inactive |
| Wdr24 | DRSC36452 | -0.614 | inactive |
| CG5065 | DRSC06912 | 0.747 | inactive |
| CG14767 | DRSC06500 | 0.465 | inactive |
| CG14767 | DRSC28418 | -0.729 | inactive |
| vsg | DRSC25227 | 1.71 | active |
| Pex19 | DRSC02839 | 0.348 | inactive |
| CG15533 | DRSC15069 | 1.02 | inactive |
| CG15533 | DRSC30031 | -0.441 | inactive |
| Npc1a | DRSC03378 | -0.667 | inactive |
| Npc1a | DRSC33330 | -0.827 | inactive |
| Npc1a | DRSC39428 | -0.435 | inactive |
| VhaM9.7-c | DRSC08204 | -0.269 | inactive |
| VhaM9.7-c | DRSC30083 | 0.00972 | inactive |
| Vps4 | DRSC19338 | -2.04 | active |
| Vps4 | DRSC25068 | -1.18 | inactive |
| Vps4 | DRSC31082 | -0.379 | inactive |
| Ppt1 | DRSC17806 | -0.731 | inactive |
| mv | DRSC08208 | -0.94 | inactive |
| mv | DRSC28733 | 0.218 | inactive |
| mv | DRSC33279 | -0.155 | inactive |

Reformatted: results already given
Cln7 [DRSC11005]: mean z-score, 3 replicates = 1.8; Call = active
Cln7 [DRSC40187]: mean z-score, 3 replicates = -0.405; Call = inactive
Sgsh [DRSC14771]: mean z-score, 3 replicates = -0.308; Call = inactive
Sod3 [DRSC07324]: mean z-score, 3 replicates = 0.928; Call = inactive
Sod3 [DRSC26222]: mean z-score, 3 replicates = 0.0959; Call = inactive
CG31928 [DRSC00293]: mean z-score, 3 replicates = 0.416; Call = inactive
Acsf2 [DRSC02172]: mean z-score, 3 replicates = -0.421; Call = inactive
